Reference: article PMC5345878

B1: Symplekin (protein, UniProt Q80X82 1-1288)
chain: MASSSGDSVTRRSVASQFFTQEEGPSIDGMTTSERVVDLLNQAALITNDSKITVLKQVQELIINKDPTLLDNFLDEIIAFQADKSIEVRKFVIGFIEEACKRDIELLLKLIANLNMLLRDENVNVVKKAILTMTQLYKVALQWMVKSRVISDLQEACWDMVSSMAGEIILLLDSDNDGIRTHAIKFVEGLIVTLSPRMADSEVPRRQEHDISLDRIPRDHPYIQYNVLWEEGKAAVEQLLKFMVHPAISSINLTTALGSLANIARQRPMFMSEVIQAYETLHANLPPTLAKSQVSSVRKNLKLHLLSVLKHPASLEFQAQITTLLVDLGTPQAEIARNMPSSKDSRKRPRDDTDSTLKKMKLEPNLGEDDEDKDLEPGPSGTSKASAQISGQSDTDITAEFLQPLLTPDNVANLVLISMVYLPETMPASFQAIYTPVESAGTEAQIKHLARLMATQMTAAGLGPGVEQTKQCKEEPKEEKVVKPESVLIKRRLSVQGQAISVVGSQSTMSPLEEEVPQAKRRPEPIIPVTQPRLAGAGGRKKIFRLSDVLKPLTDAQVEAMKLGAVKRILRAEKAVACSGAAQVRIKILASLVTQFDSGFKAEVLSFILEDVRARLDLAFAWLYQEYNAYLAAGTSGTLDKYEDCLICLLSGLQEKPDQKDGIFTKVVLEAPLITESALEVIRKYCEDESRAYLGMSTLGDLIFKRPSRQFQYLHVLLDLSSHEKDRVRSQALLFIKRMYEKEQLREYVEKFALNYLQLLVHPNPPSVLFGADKDTEVAAPWTEETVKQCLYLYLALLPQNHKLIHELAAVYTEAIADIKRTVLRVIEQPIRGMGMNSPELLLLVENCPKGAETLVTRCLHSLTDKVPPSPELVKRVRDLYHKRLPDVRFLIPVLNGLEKKEVIQALPKLIKLNPIVVKEVFNRLLGTQHGEGNSALSPLNPGELLIALHNIDSVKCDMKSIIKATNLCFAERNVYTSEVLAVVMQQLMEQSPLPMLLMRTVIQSLTMYPRLGGFVMNILARLIMKQVWKYPKVWEGFIKCCQRTKPQSFQVILQLPPQQLGAVFDKCPELREPLLAHVRSFTPHQQAHIPNSIMTILEATGKQEPEVKEAPSGPLEEDDLEPLALALAPAPAPAPAPAPAPAPAPRPPQDLIGLRLAQEKALKRQLEEEQKQKPTGIGAPAACVSSTPSVPAAARAGPTPAEEVMEYREEGPECETPAIFISMDDDSGLAETTLLDSSLEGPLPKEAAAVGSSSKDERSPQNLSHAVEEALKTSSPETREPESKGNS
B2: Nucleolysin TIA-1 (protein, UniProt P52912 1-386)
chain: MEDEMPKTLYVGNLSRDVTEALILQLFSQIGPCKNCKMIMDTAGNDPYCFVEFHEHRHAAAALAAMNGRKIMGKEVKVNWATTPSSQKKDTSSSTVVSTQRSQDHFHVFVGDLSPEITTEDIKAAFAPFGRISDARVVKDMATGKSKGYGFVSFFNKWDAENAIQQMGGQWLGGRQIRTNWATRKPPAPKSTYESNTKQLSYDEVVSQSSPNNCTVYCGGVTSGLTEQLMRQTFSPFGQIMEIRVFPDKGYSFVRFSSHESAAHAIVSVNGTTIEGHVVKCYWGKETLDMINPVQQQNQIGYPPTYGQWGQWYGNAQQIGQYVPNGWQVPAYGVYGQPWSQQGFNQTQSSAPWMGPNYSVPPPQGQNGSMLPSQPAGYRVAGYETQ
B3: U2 small nuclear ribonucleoprotein A' (protein, UniProt P57784 1-255)
chain: MVKLTAELIEQAAQYTNAVRDRELDLRGYKIPVIENLGATLDQFDAIDFSDNEIRKLDGFPLLRRLKTLLVNNNRICRIGEGLDQALPCLTELILTNNSLVELGDLDPLASLKSLTYLSILRNPVTNKKHYRLYVIYKVPQVRVLDFQKVKLKERQEAEKMFKGKRGAQLAKDIARRSKTFNPGAGLPTDKKKGGPSAGDVEAIKNAIANASTLAEVERLKGLLQSGQIPGRERRSGPSDEGEEEIEDDTVTNGS

Molecular target: Histone variant H2A.B.3 (mouse)
Assay: affinity purification with mass spectrometry; formaldehyde crosslinked mononucleosomes (MNase I) from testes of 28-30 day old mice; anti-H2A.B.3 or anti-H2A.Z antibody covalently bound to Dynabeads, 4 hours at 4°C; washes with 1 M NaCl; LC-MS/MS; two replicates each; proteins common to H2A.Z and H2A.B.3 removed

Row | Binder | binding
1 | B1 | binds
2 | B2 | binds
3 | B3 | binds

Results are given in words; binding and its absence hold for the method and conditions named. In cells and extracts the contact can be indirect. These calls come from enrichment with a bait or labelling near it, and not all partners need be listed.
